# Experimental data published in PubChem BioAssay AID1347076 (National Center for Advancing Translational Sciences (NCATS), 2019).
# In all, about 400,000 compounds went through this assay and about 13,000 (3.2%) were called active. The shares of active, inactive and inconclusive entries below differ from those in the screen. The call rests on the fitted dose curve; in most records, active means well fitted cell-killing curve with a large enough effect; inconclusive means small, poorly fitted or top-dose-only effect, or effect the other way; inactive means flat fitted curve, though single readings scatter. Where the call is inconclusive, the potency comes from a doubtful curve fit.
# Experiment: qHTS assay for MDR1-selective chemotherapeutics: Primary screen using the drug-selected MDR subline cells KB-V1; further: nearly all actives have a fitted effect of over 60% in size
# Details: KB-V1 MDR cells viability, CellTiter-Glo, 72 h; activity change, negative = cytotoxicity: at 46.1 µM (top of the series)
# Summary of the method: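 KB-V1 cells (P-gp-expressing MDR subline of KB-3-1) in phenol-red-free DMEM with 10% FBS were exposed to library compounds over a concentration series for 72 h at 37 degrees C. Viability read by CellTiter-Glo luminescence; concentration-effect curves fitted after normalization.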
# On the % scale 0 is the no-effect control and ±100 the full control effect; potency means the concentration at half of the fitted maximal effect.
Structure (SMILES),"activity change, negative = cytotoxicity",Potency
CC1CCC(C(C)C)C(OC(=O)COC(=O)c2ccc(=O)[nH]c2)C1 (configuration not stated),inactive: -15.1%,
COc1ccc(N2CCN(C(=O)c3ccc(CS(=O)c4cccc(C)c4)o3)CC2)cc1 (configuration not stated),inactive: -55.8%,
Cc1ccc(N(CC(=O)NCc2ccco2)C(=O)CCC(=O)Nc2ccccn2)c(C)c1,,"inconclusive: 0.651 µM [cytotoxic, full curve, poor fit]"
COC(=O)C1(C)NC(c2ccccc2C)C2C(=O)N(c3ccc(F)cc3)C(=O)C21 (configuration not stated),inactive: 16.5%,
COc1ccc(CN(C(=O)c2snc(C(N)=O)c2N)C(C)C(=O)NCc2ccc(F)cc2)cc1 (configuration not stated),,"inconclusive: 5.8 µM [cytotoxic, full curve]"
CCOC(=O)c1ccc(NC(=O)c2cc(F)c(F)cc2Cl)cc1,,"inconclusive: 29.1 µM [cytotoxic, single point]"
Cc1ccc(-c2n[nH]c(=O)c3ccccc23)c(C)c1,,"inconclusive: 13 µM [cytotoxic, partial curve]"
COc1cc(NC(=O)CSc2ccc(-c3sc(C)nc3C)nn2)cc(OC)c1,,"inconclusive: 29.1 µM [cytotoxic, single point]"
CC1CN(CCCCOc2cccc(Oc3ccccc3)c2)CC(C)O1 (configuration not stated),,"inconclusive: 11.6 µM [cytotoxic, partial curve]"
Cc1cc2nc(C)n(CCCNC(=O)Nc3ccccc3)c2cc1C,,active: 23.1 µM
CCN1CCN(c2nc(N)c([N+](=O)[O-])c(Nc3cccc(C)c3)n2)CC1,,active: 3.26 µM
Nc1ncnc2c1ncn2[C@@H]1O[C@H](CNC(=O)[C@@H]2CCN2)[C@@H](O)[C@H]1O,inactive: 24.3%,
Cc1c(NC(=O)C(C)NCC2CCCO2)c(=O)n(-c2ccccc2)n1C (configuration not stated),,"inconclusive: 29.1 µM [rising, single point]"
COc1cccc(-c2cc(C(=O)Nc3ccc(OC)cc3OC)no2)c1,inactive: 0%,
Cc1ccccc1CN(C)C(=O)COC(=O)CSc1ccc([N+](=O)[O-])cc1,inactive: -11.3%,
O=C(Nc1c[nH]c(=O)[nH]c1=O)c1cccc([N+](=O)[O-])c1,inactive: -0.19%,
CC(=O)Nc1cccc(NC(=S)Nc2cccc3ccccc23)c1,inactive: 4.4%,
COc1cc(/C=C/[N+](=O)[O-])ccc1OC(=O)c1cc2ccccc2oc1=O,inconclusive: 12.2%,
COc1cc(/C=N/NC(=O)C2COc3ccccc3O2)ccc1O (configuration not stated),inactive: -7.03%,
CCC(C)NC(=O)CN(c1cc(Cl)cc(Cl)c1)S(C)(=O)=O (configuration not stated),inactive: -16.6%,
CCCNC(=O)c1cc(C2CCCN(C(=O)c3cc(C(C)(C)C)nn3C)C2)on1 (configuration not stated),inactive: -6.8%,
COC(=O)c1ccccc1NC(=O)Cc1nc(-c2ccc(OC)cc2)no1,,"inconclusive: 5.17 µM [rising, partial curve]"

# A section from the list above, for reference:
Structure (SMILES),"activity change, negative = cytotoxicity",Potency
COc1ccc(N2CCN(C(=O)c3ccc(CS(=O)c4cccc(C)c4)o3)CC2)cc1 (configuration not stated),inactive: -55.8%,
Cc1ccc(N(CC(=O)NCc2ccco2)C(=O)CCC(=O)Nc2ccccn2)c(C)c1,,"inconclusive: 0.651 µM [cytotoxic, full curve, poor fit]"
